We go through 20 substances from patent US9938322B2 (priority 2013, dated 2018).

Strings that start with PEPTIDE1 are HELM notation: dots part the residues, brackets hold end groups and non-standard residues. Where no end group is shown, it is not given here. [ ]: non-standard residue; d: D form. Cha = N[C@@H](CC1CCCCC1)C(=O)O; Agp = N=C(N)NC[C@H](N)C(=O)O; Tle = CC(C)(C)[C@H](N)C(=O)O; dDab = NCC[C@@H](N)C(=O)O; Orn = NCCC[C@H](N)C(=O)O; Dab = NCC[C@H](N)C(=O)O

A short description of the data set: general procedure: Fmoc solid-phase peptide synthesis; preloaded Fmoc-amino acid 2-chlorotrityl resins. The conditions noted are these: whole synthesis, scale of the general procedure approximately 80 mg resin per vessel.
For the substance “PEPTIDE1{L.S.Y.[Dab].[Orn].[DDab].[Dap].W.[Dab].[tBuGly].A.S.[dP].P}$PEPTIDE1,PEPTIDE1,1:R1-14:R2$$$V2.0”, the “purity (crude or final not stated)” value is 86%.

Regarding “PEPTIDE1{W.[Dap(Thr)].[Cha].[Dab].[Orn].[DDab].[Dab].W.[Dab].[tBuGly].A.S.[dP].P}$PEPTIDE1,PEPTIDE1,1:R1-14:R2$$$V2.0”, the “purity (crude or final not stated)” value is listed as 96%.

In the case of “WA[Cha][Dab][Orn][dDab][Dab]W[Dab][Tle][Agp]S[dP]P”, the “purity (crude or final not stated)” value is 85%.

With “PEPTIDE1{W.[Dap].[Cha].[Dab].[Orn].[D-Dab].[Dab].W.[Dab].[tBuGly].A.S.[dP].[Pic]}$PEPTIDE1,PEPTIDE1,1:R1-14:R2$$$V2.0”, the “purity (crude or final not stated)” value worked out at 94%.

On to “PEPTIDE1{L.S.F.[Dab].[Orn].[DDab].[Dab].W.[Dab].[tBuGly].A.S.[dP].P}$PEPTIDE1,PEPTIDE1,1:R1-14:R2$$$V2.0”, for which the “purity (crude or final not stated)” value is listed as 87%.

Regarding “PEPTIDE1{L.S.[Tyr(Me)].[Dab].[Orn].[DDab].[Dab].W.[Dab].[tBuGly].A.S.[dP].P}$PEPTIDE1,PEPTIDE1,1:R1-14:R2$$$V2.0”, the “purity (crude or final not stated)” value amounted to 88%.

For the substance “PEPTIDE1{[Nva].S.W.[Dab].[Orn].[D-Dab].[Dab].W.[Dab].[tBuGly].A.S.[dP].P}$PEPTIDE1,PEPTIDE1,1:R1-14:R2$$$V2.0”, the “purity (crude or final not stated)” value came out at 92%.

For the substance “PEPTIDE1{L.[Dap].Y.[Dab].[Dab].[DDab].[Dab].W.[Dab].[tBuGly].S.T.[dP].P}$PEPTIDE1,PEPTIDE1,1:R1-14:R2$$$V2.0”, the “purity (crude or final not stated)” value is 91%.

In the case of “PEPTIDE1{Y.S.[tBuGly].[Dab].[Orn].[D-Dab].[Dab].W.[Dab].[Chg].A.S.[dP].P}$PEPTIDE1,PEPTIDE1,1:R1-14:R2$$$V2.0”, the “purity (crude or final not stated)” value is 93%.

Turning to “PEPTIDE1{W.S.Y.[Dab].[Orn].[Dab].[Dab].W.[Dab].[tBuGly].A.S.[dP].P}$PEPTIDE1,PEPTIDE1,1:R1-14:R2$$$V2.0”, the “purity (crude or final not stated)” value is given as 87%.

In the case of “PEPTIDE1{L.S.Y.[Dab].[Orn].[Dab].[Dab].W.[Dab].[Chg].A.S.[dP].P}$PEPTIDE1,PEPTIDE1,1:R1-14:R2$$$V2.0”, the “purity (crude or final not stated)” value stood at 88%.

On to “PEPTIDE1{V.S.Y.[Dab].[Orn].[D-Dab].[Dab].W.[Dab].[tBuGly].A.S.[dP].[Pro((3S)OH)]}$PEPTIDE1,PEPTIDE1,1:R1-14:R2$$$V2.0”, for which the “purity (crude or final not stated)” value stood at 92%.

For the substance “Trp-Ala-Cha-Dab-Orn-Dab-Dab-Trp-Dab-tBuGly-Ala-Ser-^DPro-Pro((4S)OBn)”, the “purity (crude or final not stated)” value is recorded as 98%.

With “PEPTIDE1{[Nva].S.[Tyr(3F)].[Dab].[Orn].[DDab].[Dab].W.[Dab].[tBuGly].A.S.[dP].P}$PEPTIDE1,PEPTIDE1,1:R1-14:R2$$$V2.0”, the “purity (crude or final not stated)” value was 92%.

Regarding “PEPTIDE1{L.S.Y.[Dab].[Orn].[DDab].[Dab].W.[Dab].V.A.S.[dP].P}$PEPTIDE1,PEPTIDE1,1:R1-14:R2$$$V2.0”, the “purity (crude or final not stated)” value stood at 89%.

Consider “PEPTIDE1{L.S.Y.[Orn].[Orn].[D-Dab].[Dab].W.[Dab].[tBuGly].A.S.[dP].P}$PEPTIDE1,PEPTIDE1,1:R1-14:R2$$$V2.0”, for which the “purity (crude or final not stated)” value is 86%.

Consider “PEPTIDE1{[Nva].S.Y.[Dab].[Orn].[DDab].[Dab].W.[Dab].[Cha].A.S.[dP].P}$PEPTIDE1,PEPTIDE1,1:R1-14:R2$$$V2.0”, for which the “purity (crude or final not stated)” value is 95%.

Consider “PEPTIDE1{W.A.[Chg].[Dab].[Orn].[DDab].[Dab].W.[Dab].[tBuGly].A.S.[dP].P}$PEPTIDE1,PEPTIDE1,1:R1-14:R2$$$V2.0”, for which the “purity (crude or final not stated)” value is given as 99%.

Turning to “PEPTIDE1{W.A.[Cha].[Dab].[Orn].[DDab].[Dab].W.[Dab].[tBuGly].[Ser(Me)].S.[dP].[Oic]}$PEPTIDE1,PEPTIDE1,1:R1-14:R2$$$V2.0”, the “purity (crude or final not stated)” value is 97%.

For the substance “Trp-Ala(iPrUr)-Cha-Dab-Orn-^DDab-Dab-Trp-Dab-tBuGly-Ala-Ser-^DPro-Pro”, the “purity (crude or final not stated)” value is 94%.
